{"source": "PubChem BioAssay AID1224830 (NIAID, 2016)", "purpose": "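Host factors that control LPS-induced TNF expression in human macrophages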 (primary screen)", "cell system": "human THP-1 monocytic leukaemia cells, TNF dual-luciferase reporter clone, PMA-differentiated to macrophage-like cells", "reagent": "siRNA pool against human genes, 50 nM", "duration": "LPS for 4 h, given about 3 days after siRNA transfection", "challenge": "bacterial LPS (TLR4 ligand), 10 ng/ml", "measured": "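Ratio of firefly to renilla light, scaled to the plate median and expressed as a robust z-score per replicate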", "reading the numbers": "TNF reporter robust z-score: higher = stronger TNF reporter response to LPS", "hit rule": "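a well is active when its z-score exceeds 2.8 or falls below -1.5; control wells carry no call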", "note": "The deposit covers about 18,000 reagents; shown is a random part of them. Of all reagents, about 2,900 (16%) are marked active. 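Calls are made per well; low scores hint the gene aids the LPS response, high scores that it dampens it.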 Repeated entries: four replicate wells of each siRNA pool."}
{"Gene": "FXN (frataxin)", "TNF reporter robust z-score": 1.56, "activity call": "inactive"}
{"Gene": "FXN (frataxin)", "TNF reporter robust z-score": 0.16, "activity call": "inactive"}
{"Gene": "FXN (frataxin)", "TNF reporter robust z-score": 0.69, "activity call": "inactive"}
{"Gene": "FXN (frataxin)", "TNF reporter robust z-score": -0.08, "activity call": "inactive"}
{"Gene": "PJVK (pejvakin)", "TNF reporter robust z-score": 0.5, "activity call": "inactive"}
{"Gene": "PJVK (pejvakin)", "TNF reporter robust z-score": 0.6, "activity call": "inactive"}
{"Gene": "PJVK (pejvakin)", "TNF reporter robust z-score": -0.36, "activity call": "inactive"}
{"Gene": "PJVK (pejvakin)", "TNF reporter robust z-score": 0.73, "activity call": "inactive"}
{"Gene": "KCNMB4", "TNF reporter robust z-score": -0.42, "activity call": "inactive"}
{"Gene": "KCNMB4", "TNF reporter robust z-score": 1.29, "activity call": "inactive"}
{"Gene": "KCNMB4", "TNF reporter robust z-score": 1.64, "activity call": "inactive"}
{"Gene": "KCNMB4", "TNF reporter robust z-score": 0.35, "activity call": "inactive"}
{"Gene": "UBE2S (ubiquitin conjugating enzyme E2 S)", "TNF reporter robust z-score": -0.3, "activity call": "inactive"}
{"Gene": "UBE2S (ubiquitin conjugating enzyme E2 S)", "TNF reporter robust z-score": 0.64, "activity call": "inactive"}
{"Gene": "UBE2S (ubiquitin conjugating enzyme E2 S)", "TNF reporter robust z-score": 0.74, "activity call": "inactive"}
{"Gene": "UBE2S (ubiquitin conjugating enzyme E2 S)", "TNF reporter robust z-score": 0.09, "activity call": "inactive"}
{"Gene": "ECT2L (epithelial cell transforming 2 like)", "TNF reporter robust z-score": -0.22, "activity call": "inactive"}
{"Gene": "ECT2L (epithelial cell transforming 2 like)", "TNF reporter robust z-score": 0.2, "activity call": "inactive"}
{"Gene": "ECT2L (epithelial cell transforming 2 like)", "TNF reporter robust z-score": -0.25, "activity call": "inactive"}
{"Gene": "ECT2L (epithelial cell transforming 2 like)", "TNF reporter robust z-score": -1.38, "activity call": "inactive"}
{"Gene": "TMEM208 (transmembrane protein 208)", "TNF reporter robust z-score": -0.45, "activity call": "inactive"}
{"Gene": "TMEM208 (transmembrane protein 208)", "TNF reporter robust z-score": -0.98, "activity call": "inactive"}
{"Gene": "TMEM208 (transmembrane protein 208)", "TNF reporter robust z-score": -0.71, "activity call": "inactive"}
{"Gene": "TMEM208 (transmembrane protein 208)", "TNF reporter robust z-score": -0.05, "activity call": "inactive"}
{"Gene": "ZMIZ2 (zinc finger MIZ-type containing 2)", "TNF reporter robust z-score": -1.49, "activity call": "inactive"}
{"Gene": "ZMIZ2 (zinc finger MIZ-type containing 2)", "TNF reporter robust z-score": -1.57, "activity call": "active"}
{"Gene": "ZMIZ2 (zinc finger MIZ-type containing 2)", "TNF reporter robust z-score": -0.34, "activity call": "inactive"}
{"Gene": "ZMIZ2 (zinc finger MIZ-type containing 2)", "TNF reporter robust z-score": -0.37, "activity call": "inactive"}
{"Gene": "H2AC18 (H2A clustered histone 18)", "TNF reporter robust z-score": -0.42, "activity call": "inactive"}
{"Gene": "H2AC18 (H2A clustered histone 18)", "TNF reporter robust z-score": -0.24, "activity call": "inactive"}
{"Gene": "H2AC18 (H2A clustered histone 18)", "TNF reporter robust z-score": -0.71, "activity call": "inactive"}
{"Gene": "H2AC18 (H2A clustered histone 18)", "TNF reporter robust z-score": 0.31, "activity call": "inactive"}
{"Gene": "GSDMB (gasdermin B)", "TNF reporter robust z-score": 0.3, "activity call": "inactive"}
{"Gene": "GSDMB (gasdermin B)", "TNF reporter robust z-score": 0.81, "activity call": "inactive"}
{"Gene": "GSDMB (gasdermin B)", "TNF reporter robust z-score": 1.32, "activity call": "inactive"}
{"Gene": "GSDMB (gasdermin B)", "TNF reporter robust z-score": 1.18, "activity call": "inactive"}
{"Gene": "TTC14 (tetratricopeptide repeat domain 14)", "TNF reporter robust z-score": -0.41, "activity call": "inactive"}
{"Gene": "TTC14 (tetratricopeptide repeat domain 14)", "TNF reporter robust z-score": -0.87, "activity call": "inactive"}
{"Gene": "TTC14 (tetratricopeptide repeat domain 14)", "TNF reporter robust z-score": -0.8, "activity call": "inactive"}
{"Gene": "TTC14 (tetratricopeptide repeat domain 14)", "TNF reporter robust z-score": -0.63, "activity call": "inactive"}
{"Gene": "PFDN4 (prefoldin subunit 4)", "TNF reporter robust z-score": -0.29, "activity call": "inactive"}
{"Gene": "PFDN4 (prefoldin subunit 4)", "TNF reporter robust z-score": -0.31, "activity call": "inactive"}
{"Gene": "PFDN4 (prefoldin subunit 4)", "TNF reporter robust z-score": -0.06, "activity call": "inactive"}
{"Gene": "PFDN4 (prefoldin subunit 4)", "TNF reporter robust z-score": -0.56, "activity call": "inactive"}
{"Gene": "TIPE1 (TNF alpha induced protein 8 like 1)", "TNF reporter robust z-score": -0.85, "activity call": "inactive"}
{"Gene": "TIPE1 (TNF alpha induced protein 8 like 1)", "TNF reporter robust z-score": -0.22, "activity call": "inactive"}
{"Gene": "TIPE1 (TNF alpha induced protein 8 like 1)", "TNF reporter robust z-score": -0.27, "activity call": "inactive"}
{"Gene": "TIPE1 (TNF alpha induced protein 8 like 1)", "TNF reporter robust z-score": -0.49, "activity call": "inactive"}
{"Gene": "GCNT2 (glucosaminyl (N-acetyl) transferase 2 (I blood group))", "TNF reporter robust z-score": 2.11, "activity call": "inactive"}
{"Gene": "GCNT2 (glucosaminyl (N-acetyl) transferase 2 (I blood group))", "TNF reporter robust z-score": -0.98, "activity call": "inactive"}
{"Gene": "GCNT2 (glucosaminyl (N-acetyl) transferase 2 (I blood group))", "TNF reporter robust z-score": -1.5, "activity call": "inactive"}
{"Gene": "GCNT2 (glucosaminyl (N-acetyl) transferase 2 (I blood group))", "TNF reporter robust z-score": -0.67, "activity call": "inactive"}
{"Gene": "ADCY9 (adenylate cyclase 9)", "TNF reporter robust z-score": 0.15, "activity call": "inactive"}
{"Gene": "ADCY9 (adenylate cyclase 9)", "TNF reporter robust z-score": 9.74, "activity call": "active"}
{"Gene": "ADCY9 (adenylate cyclase 9)", "TNF reporter robust z-score": 2.22, "activity call": "inactive"}
{"Gene": "ADCY9 (adenylate cyclase 9)", "TNF reporter robust z-score": 0.62, "activity call": "inactive"}
{"Gene": "MYRFL (myelin regulatory factor like)", "TNF reporter robust z-score": 0.07, "activity call": "inactive"}
{"Gene": "MYRFL (myelin regulatory factor like)", "TNF reporter robust z-score": 0.92, "activity call": "inactive"}
{"Gene": "MYRFL (myelin regulatory factor like)", "TNF reporter robust z-score": 0.29, "activity call": "inactive"}
{"Gene": "MYRFL (myelin regulatory factor like)", "TNF reporter robust z-score": 0.87, "activity call": "inactive"}
